In US9889123B2, “Polymorphs of deuterated omega-diphenylurea or salts thereof” (Suzhou Zelgen Biopharmaceuticals Co., Ltd., priority 2012, dated 2018):
Some of these results come from one statement about several compounds together.

Experiment: Drug hygroscopicity test (Chinese Pharmacopoeia 2010 edition, Appendix XIX J)
Assay type: physicochemical
Settings: humidistatic dryer (saturated ammonium sulfate) at 25° C.±1° C. for 24 hours

SMILES: [2H]C([2H])([2H])NC(=O)c1cc(Oc2ccc(NC(=O)Nc3ccc(Cl)c(C(F)(F)F)c3)cc2)ccn1 [polymorph VI, 4-(4-{3-[4-chloro-3-(trifluoromethyl)phenyl)-ureido]-phenoxy}-2-(N-1′,1′,1′-trideutero-methyl)picolinamide]
- hygroscopicity: no or almost no hygroscopicity (It is defined as no or almost no hygroscopicity when the weight increase (%) is less than 0.2%)
